This is one part of the list.
What was measured:
Test in all cases: log2 fold change, soluble protein after heating vs DMSO (PISA); higher = thermal stabilisation; K562 lysate, 10 uM; active = over 0.2 and 3.5 SD of the protein, either way, in both replicates (recomputed)
erlotinib = compound: C#Cc1cccc(Nc2ncnc3cc(OCCOC)c(OCCOC)cc23)c1 [erlotinib]
How it was run: (§1)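 Quantification was by TMTpro 16plex LC-MS/MS with equalised channel sums, applied to the supernatant after 21,000xg for 90 min. Samples were crude K562 extract at 1 mg/mL protein in PBS pH 7.4 with 1 mM MgCl2, treated with 10 μM compound for 30 min, heated for 3 min across 48°C-58°C, pooled and brought to 0.5% NP-40 at 4°C. Values are log-two fold changes in thermal stability relative to solvent controls, from duplicates.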

By UniProt entry, the sequences of proteins in these tests, tags left out. Where a name states a change or a piece, a line headed by the entry shows the natural chain unless it says otherwise.
UniProt O14593: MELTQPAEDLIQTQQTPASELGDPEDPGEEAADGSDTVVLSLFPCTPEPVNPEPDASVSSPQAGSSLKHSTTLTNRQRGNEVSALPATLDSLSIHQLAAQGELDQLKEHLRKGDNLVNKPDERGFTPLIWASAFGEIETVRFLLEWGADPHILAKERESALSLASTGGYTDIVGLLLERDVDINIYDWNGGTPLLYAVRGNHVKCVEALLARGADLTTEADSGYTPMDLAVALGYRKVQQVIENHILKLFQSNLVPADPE
UniProt Q96EN9: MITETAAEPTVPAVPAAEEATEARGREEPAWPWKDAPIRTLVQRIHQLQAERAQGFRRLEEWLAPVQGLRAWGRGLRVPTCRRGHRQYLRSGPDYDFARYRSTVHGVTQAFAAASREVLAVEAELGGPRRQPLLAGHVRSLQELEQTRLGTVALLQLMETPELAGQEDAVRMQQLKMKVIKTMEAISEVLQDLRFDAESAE
UniProt Q9H0Z9: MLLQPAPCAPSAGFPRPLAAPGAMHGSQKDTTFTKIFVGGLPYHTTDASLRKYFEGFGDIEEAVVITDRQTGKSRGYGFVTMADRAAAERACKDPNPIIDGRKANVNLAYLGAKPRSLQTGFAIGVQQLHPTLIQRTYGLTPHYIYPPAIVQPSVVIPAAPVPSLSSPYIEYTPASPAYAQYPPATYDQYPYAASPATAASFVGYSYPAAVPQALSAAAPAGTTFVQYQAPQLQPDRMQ
UniProt Q9Y388: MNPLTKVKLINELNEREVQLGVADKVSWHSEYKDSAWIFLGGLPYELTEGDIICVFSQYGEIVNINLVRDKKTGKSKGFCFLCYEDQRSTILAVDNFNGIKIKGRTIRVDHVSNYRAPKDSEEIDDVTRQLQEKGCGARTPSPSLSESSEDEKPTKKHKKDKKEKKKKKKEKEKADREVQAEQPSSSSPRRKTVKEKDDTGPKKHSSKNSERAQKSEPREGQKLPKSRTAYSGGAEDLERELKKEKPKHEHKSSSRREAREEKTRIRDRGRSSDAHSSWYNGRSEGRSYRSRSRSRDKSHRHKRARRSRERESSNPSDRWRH
UniProt P82980: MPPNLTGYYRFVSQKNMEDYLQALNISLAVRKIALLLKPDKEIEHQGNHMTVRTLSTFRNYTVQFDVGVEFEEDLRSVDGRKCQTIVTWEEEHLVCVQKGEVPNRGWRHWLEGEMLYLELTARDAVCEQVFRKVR
UniProt Q8TC12: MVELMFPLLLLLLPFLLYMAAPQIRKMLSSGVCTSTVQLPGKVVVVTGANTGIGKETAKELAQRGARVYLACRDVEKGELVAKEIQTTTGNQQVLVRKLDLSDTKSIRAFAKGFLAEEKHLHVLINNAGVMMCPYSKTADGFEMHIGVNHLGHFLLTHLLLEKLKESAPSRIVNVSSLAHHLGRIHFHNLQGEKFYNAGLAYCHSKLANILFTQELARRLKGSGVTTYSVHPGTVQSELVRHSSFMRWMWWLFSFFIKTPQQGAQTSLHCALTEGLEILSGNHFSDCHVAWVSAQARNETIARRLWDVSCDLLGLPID

[1] = compound: C/C(=N\NC(=O)C1=CC(=CC=C1)S(=O)(=O)N2CCOCC2)/C3=C(C=CC(=C3)Cl)O
How it was run: as §1

[2] = compound: C1=CC(=CC=C1C2=NC3=C(N2)C=C(C=C3)C(=O)N)OC4=CC=C(C=C4)Cl
How it was run: as §1

[3] = compound: C1=CC2=C(C=CC(=C2)/C=C\3/C(=O)NC(=NCC4=CC=CS4)S3)N=C1
How it was run: as §1

[4] = compound: C1=CC2=NC=CN=C2C=C1/C=C/3\C(=O)NC(=O)S3
How it was run: as §1

[5] = compound: C1=CC=C(C=C1)C2=NC(=C(N2)C3=CC=NC=C3)C4=CC(=C(C=C4)Cl)O
How it was run: as §1

[6] = compound: C1=CC=C2C(=C1)C3=NNC4=CC=CC(=C43)C2=O
How it was run: as §1

[7] = compound: C1CCN(C1)C(=O)NC2=CC=CC(=C2)NC3=NC=C(C(=N3)NCCC4=CN=CN4)Br
How it was run: as §1

[8] = compound: C1CN(CCC1(CC2=CC=C(C=C2)Cl)N)C3=NC=NC4=C3C=CN4
How it was run: as §1

IRAK-1-4 Inhibitor I = compound: C1COCCN1CCN2C3=CC=CC=C3N=C2NC(=O)C4=CC(=CC=C4)[N+](=O)[O-] [IRAK-1-4 Inhibitor I]
How it was run: as §1

ibrutinib = compound: C=CC(=O)N1CCC[C@@H](n2nc(-c3ccc(Oc4ccccc4)cc3)c3c(N)ncnc32)C1 [ibrutinib]
How it was run: as §1

[9] = compound: CC(=O)c1cnc2ccc(-c3cc(Cl)c(O)c(Cl)c3)nc2c1N[C@H]1CC[C@H](CN(C)C)CC1
How it was run: as §1

ralimetinib = compound: CC(C)(C)Cn1c(N)nc2ccc(-c3[nH]c(C(C)(C)C)nc3-c3ccc(F)cc3)nc21 [ralimetinib]
How it was run: as §1

[10] = compound: CC(C)(O)CC(=O)NCCn1ccc2ncnc(Nc3ccc(Oc4cccc(C(F)(F)F)c4)c(Cl)c3)c21
How it was run: as §1

[11] = compound: CC(C)C1=C2N=C(C=C(N2N=C1)NCC3=CC=CC=C3)NCCCCCCN
How it was run: as §1

[12] = compound: CC1=C(C2=C(C=C1)C(=O)C3=CC=CC=C3N2CCCN)C
How it was run: as §1

[13] = compound: CC1=C(C=C(C=C1)NC(=O)C2=CC(=CC=C2)C(C)(C)C#N)NC3=CC4=C(C=C3)N=CN(C4=O)C
How it was run: as §1

[14] = compound: CC1=C(C=C(C=C1)NC(=O)C2=CC(=CC=C2)N(C)C)NC(=O)C3=CC=C(C=C3)O
How it was run: as §1

[15] = compound: CC1=CC=C(C=C1)SC2=C3C=C(SC3=CN=C2)C(=O)N
How it was run: as §1

[16] = compound: CC1=C(C(CC(=O)N1)C2=CC=C(C=C2)C(F)(F)F)C(=O)NC3=C(C=C4C(=C3)C=NN4)F
How it was run: as §1

Measured: log2 fold change

RFXANK (UniProt O14593)
inactive: erlotinib -0.005 | [1] 0.022 | [2] -0.011 | [3] 0.027 | [4] -0.017 | [5] -0.017 | [6] 0.06 | [7] 0.016 | [8] 0.002 | IRAK-1-4 Inhibitor I -0.034 | ibrutinib 0.1 | [9] -0.068 | ralimetinib 0.088 | [10] 0.024 | [11] 0.085 | [12] -0.012 | [13] 0.008 | [14] 0.019 | [15] 0.058

REX1BD (UniProt Q96EN9)
inactive: erlotinib 0.074 | [2] -0.06 | [5] -0.061 | [7] -0.176 | [8] -0.044 | IRAK-1-4 Inhibitor I 0.103 | ralimetinib 0.014 | [10] -0.015 | [11] 0.007 | [16] -0.112 | [12] -0.095 | [13] -0.04 | [14] 0.031

RBM38 (UniProt Q9H0Z9)
inactive: erlotinib -0.035 | [1] 0.031 | [2] 0.04 | [3] -0.01 | [5] -0.197 | [6] 0.037 | [7] -0.028 | [8] 0.095 | IRAK-1-4 Inhibitor I 0.056 | [9] -0.02 | ralimetinib -0.055 | [10] 0.007 | [11] -0.016 | [16] -0.017 | [12] -0.016 | [13] -0.136 | [14] -0.068 | [15] -0.053

RBMX2 (UniProt Q9Y388)
inactive: erlotinib -0.087 | [1] -0.212 | [2] -0.116 | [3] 0.015 | [6] 0.106 | [9] -0.004 | [11] 0.122 | [12] -0.034 | [15] 0.06

RBP5 (UniProt P82980)
inactive: erlotinib 0.037 | [1] 0.029 | [2] -0.11 | [3] 0.101 | [5] 0.077 | [6] 0.139 | [7] -0.055 | [8] -0.144 | IRAK-1-4 Inhibitor I 0 | [9] -0.077 | ralimetinib 0.015 | [10] -0.109 | [11] 0.065 | [16] 0.138 | [12] 0.031 | [13] -0.153 | [14] 0.072 | [15] 0.084

RDH11 (UniProt Q8TC12)
inactive: erlotinib 0.018 | [1] 0.087 | [2] -0.02 | [3] 0.015 | [5] 0.006 | [6] -0.065 | [7] -0.037 | [8] 0.063 | IRAK-1-4 Inhibitor I 0.012 | [9] -0.021 | ralimetinib 0.005 | [10] -0.043 | [11] 0.068 | [16] -0.013 | [12] -0.039 | [13] -0.037 | [14] -0.039 | [15] -0.111

From the supplement of paper PMC10849652
